No constants are given. Whether binding was seen depends on the method and setting. Some entries that bind do so weakly or less than the wild type.

The labels stand for the following.
B1: ^mChSpindly^CC2* (R295E-K297E) (protein, UniProt Q96EA4 1-605)
chain: MEADIITNLRCRLKEAEEERLKAAQYGLQLVESQNELQNQLDKCRNEMMTMTESYEQEKYTLQREVELKSRMLESLSCECEAIKQQQKMHLEKLEEQLSRSHGQEVNELKTKIEKLKVELDEARLSEKQLKHQVDHQKELLSCKSEELRVMSERVQESMSSEMLALQIELTEMESMKTTLKEEVNELQYRQEQLELLITNLMRQVDRLKEEKEEREKEAVSYYNALEKARVANQDLQVQLDQALQQALDPNSKGNSLFAEVEDRRAAMERQLISMKVKYQSLKKQNVFNREQMQEMELQIATLLQMKGSQTEFEQQERLLAMLEQKNGEIKHLLGEIRNLEKFKNLYDSMESKPSVDSGTLEDNTYYTDLLQMKLDNLNKEIESTKGELSIQRMKALFESQRALDIERKLFANERCLQLSESENMKLRAKLDELKLKYEPEETVEVPVLKKRREVLPVDITTAKDACVNNSALGGEVYRLPPQKEETQSCPNSLEDNNLQLEKSVSIYTPVVSLSPHKNLPVDMQLKKEKKCVKLIGVPADAEALSERSGNTPNSPRLAAESKLQTEVKEGKETSSKLEKETCKKLHPILYVSSKSTPETQCPQQ
B2: Spindly^1–275 (domain or fragment, UniProt Q96EA4 1-275)
chain: MEADIITNLRCRLKEAEEERLKAAQYGLQLVESQNELQNQLDKCRNEMMTMTESYEQEKYTLQREVELKSRMLESLSCECEAIKQQQKMHLEKLEEQLSRSHGQEVNELKTKIEKLKVELDEARLSEKQLKHQVDHQKELLSCKSEELRVMSERVQESMSSEMLALQIELTEMESMKTTLKEEVNELQYRQEQLELLITNLMRQVDRLKEEKEEREKEAVSYYNALEKARVANQDLQVQLDQALQQALDPNSKGNSLFAEVEDRRAAMERQLISM
B3: ^mChSpindly^∆276–306 (protein, UniProt Q96EA4)
chain: MEADIITNLRCRLKEAEEERLKAAQYGLQLVESQNELQNQLDKCRNEMMTMTESYEQEKYTLQREVELKSRMLESLSCECEAIKQQQKMHLEKLEEQLSRSHGQEVNELKTKIEKLKVELDEARLSEKQLKHQVDHQKELLSCKSEELRVMSERVQESMSSEMLALQIELTEMESMKTTLKEEVNELQYRQEQLELLITNLMRQVDRLKEEKEEREKEAVSYYNALEKARVANQDLQVQLDQALQQALDPNSKGNSLFAEVEDRRAAMERQLISMKGSQTEFEQQERLLAMLEQKNGEIKHLLGEIRNLEKFKNLYDSMESKPSVDSGTLEDNTYYTDLLQMKLDNLNKEIESTKGELSIQRMKALFESQRALDIERKLFANERCLQLSESENMKLRAKLDELKLKYEPEETVEVPVLKKRREVLPVDITTAKDACVNNSALGGEVYRLPPQKEETQSCPNSLEDNNLQLEKSVSIYTPVVSLSPHKNLPVDMQLKKEKKCVKLIGVPADAEALSERSGNTPNSPRLAAESKLQTEVKEGKETSSKLEKETCKKLHPILYVSSKSTPETQCPQQ
B4: Spindly^156–275 (domain or fragment, UniProt Q96EA4 156-275)
chain: QESMSSEMLALQIELTEMESMKTTLKEEVNELQYRQEQLELLITNLMRQVDRLKEEKEEREKEAVSYYNALEKARVANQDLQVQLDQALQQALDPNSKGNSLFAEVEDRRAAMERQLISM
B5: ^mChSpindly^∆26–32 (protein, UniProt Q96EA4)
chain: MEADIITNLRCRLKEAEEERLKAAQSQNELQNQLDKCRNEMMTMTESYEQEKYTLQREVELKSRMLESLSCECEAIKQQQKMHLEKLEEQLSRSHGQEVNELKTKIEKLKVELDEARLSEKQLKHQVDHQKELLSCKSEELRVMSERVQESMSSEMLALQIELTEMESMKTTLKEEVNELQYRQEQLELLITNLMRQVDRLKEEKEEREKEAVSYYNALEKARVANQDLQVQLDQALQQALDPNSKGNSLFAEVEDRRAAMERQLISMKVKYQSLKKQNVFNREQMQRMKLQIATLLQMKGSQTEFEQQERLLAMLEQKNGEIKHLLGEIRNLEKFKNLYDSMESKPSVDSGTLEDNTYYTDLLQMKLDNLNKEIESTKGELSIQRMKALFESQRALDIERKLFANERCLQLSESENMKLRAKLDELKLKYEPEETVEVPVLKKRREVLPVDITTAKDACVNNSALGGEVYRLPPQKEETQSCPNSLEDNNLQLEKSVSIYTPVVSLSPHKNLPVDMQLKKEKKCVKLIGVPADAEALSERSGNTPNSPRLAAESKLQTEVKEGKETSSKLEKETCKKLHPILYVSSKSTPETQCPQQ
B6: ^mChSpindly^ΔRV (protein, UniProt Q96EA4 1-605)
chain: MEADIITNLRCRLKEAEEERLKAAQYGLQLVESQNELQNQLDKCRNEMMTMTESYEQEKYTLQREVELKSRMLESLSCECEAIKQQQKMHLEKLEEQLSRSHGQEVNELKTKIEKLKVELDEARLSEKQLKHQVDHQKELLSCKSEELRVMSEQESMSSEMLALQIELTEMESMKTTLKEEVNELQYRQEQLELLITNLMRQVDRLKEEKEEREKEAVSYYNALEKARVANQDLQVQLDQALQQALDPNSKGNSLFAEVEDRRAAMERQLISMKVKYQSLKKQNVFNREQMQRMKLQIATLLQMKGSQTEFEQQERLLAMLEQKNGEIKHLLGEIRNLEKFKNLYDSMESKPSVDSGTLEDNTYYTDLLQMKLDNLNKEIESTKGELSIQRMKALFESQRALDIERKLFANERCLQLSESENMKLRAKLDELKLKYEPEETVEVPVLKKRREVLPVDITTAKDACVNNSALGGEVYRLPPQKEETQSCPNSLEDNNLQLEKSVSIYTPVVSLSPHKNLPVDMQLKKEKKCVKLIGVPADAEALSERSGNTPNSPRLAAESKLQTEVKEGKETSSKLEKETCKKLHPILYVSSKSTPETQCPQQ
B7: ^mChSpindly^33–605 (domain or fragment, UniProt Q96EA4 33-605)
chain: SQNELQNQLDKCRNEMMTMTESYEQEKYTLQREVELKSRMLESLSCECEAIKQQQKMHLEKLEEQLSRSHGQEVNELKTKIEKLKVELDEARLSEKQLKHQVDHQKELLSCKSEELRVMSERVQESMSSEMLALQIELTEMESMKTTLKEEVNELQYRQEQLELLITNLMRQVDRLKEEKEEREKEAVSYYNALEKARVANQDLQVQLDQALQQALDPNSKGNSLFAEVEDRRAAMERQLISMKVKYQSLKKQNVFNREQMQRMKLQIATLLQMKGSQTEFEQQERLLAMLEQKNGEIKHLLGEIRNLEKFKNLYDSMESKPSVDSGTLEDNTYYTDLLQMKLDNLNKEIESTKGELSIQRMKALFESQRALDIERKLFANERCLQLSESENMKLRAKLDELKLKYEPEETVEVPVLKKRREVLPVDITTAKDACVNNSALGGEVYRLPPQKEETQSCPNSLEDNNLQLEKSVSIYTPVVSLSPHKNLPVDMQLKKEKKCVKLIGVPADAEALSERSGNTPNSPRLAAESKLQTEVKEGKETSSKLEKETCKKLHPILYVSSKSTPETQCPQQ
B8: ^mChSpindly^76–605 (domain or fragment, UniProt Q96EA4 76-605)
chain: LSCECEAIKQQQKMHLEKLEEQLSRSHGQEVNELKTKIEKLKVELDEARLSEKQLKHQVDHQKELLSCKSEELRVMSERVQESMSSEMLALQIELTEMESMKTTLKEEVNELQYRQEQLELLITNLMRQVDRLKEEKEEREKEAVSYYNALEKARVANQDLQVQLDQALQQALDPNSKGNSLFAEVEDRRAAMERQLISMKVKYQSLKKQNVFNREQMQRMKLQIATLLQMKGSQTEFEQQERLLAMLEQKNGEIKHLLGEIRNLEKFKNLYDSMESKPSVDSGTLEDNTYYTDLLQMKLDNLNKEIESTKGELSIQRMKALFESQRALDIERKLFANERCLQLSESENMKLRAKLDELKLKYEPEETVEVPVLKKRREVLPVDITTAKDACVNNSALGGEVYRLPPQKEETQSCPNSLEDNNLQLEKSVSIYTPVVSLSPHKNLPVDMQLKKEKKCVKLIGVPADAEALSERSGNTPNSPRLAAESKLQTEVKEGKETSSKLEKETCKKLHPILYVSSKSTPETQCPQQ

For this test, the target named is Dynactin pointed-end (PE) capping complex (p25, p27, p62, Arp11) (UniProt Q9NZ32). As to the kind of experiment: SEC; PE complex 3 µM mixed with Spindly construct 8 µM (Fig. 3 F: 4 µM and 10 µM), at least 1 h on ice; Superdex 200 5/150 (named in the legend of Fig. 5); 4°C, Spindly buffer (50 mM Hepes pH 8.0, 250 mM NaCl, 2 mM TCEP); fractions on SDS-PAGE; both purified.
Consider B1, for which the binding entry was “binds”.
Consider B2, for which the binding entry is “binds weakly”.
As for B3, the entry is “binds weakly”.
In the case of B4 it was “binds”; in that of B5, “binds weakly”.
In the case of B6 it was “binds”; in that of B7, “binds”.
Regarding B8, the binding entry is “binds”.
